## Primary screen of a compound library

Amino acid sequences for entries named in this document (tags omitted). Residues count along the entry.
UniProt I6X8D2, whole entry: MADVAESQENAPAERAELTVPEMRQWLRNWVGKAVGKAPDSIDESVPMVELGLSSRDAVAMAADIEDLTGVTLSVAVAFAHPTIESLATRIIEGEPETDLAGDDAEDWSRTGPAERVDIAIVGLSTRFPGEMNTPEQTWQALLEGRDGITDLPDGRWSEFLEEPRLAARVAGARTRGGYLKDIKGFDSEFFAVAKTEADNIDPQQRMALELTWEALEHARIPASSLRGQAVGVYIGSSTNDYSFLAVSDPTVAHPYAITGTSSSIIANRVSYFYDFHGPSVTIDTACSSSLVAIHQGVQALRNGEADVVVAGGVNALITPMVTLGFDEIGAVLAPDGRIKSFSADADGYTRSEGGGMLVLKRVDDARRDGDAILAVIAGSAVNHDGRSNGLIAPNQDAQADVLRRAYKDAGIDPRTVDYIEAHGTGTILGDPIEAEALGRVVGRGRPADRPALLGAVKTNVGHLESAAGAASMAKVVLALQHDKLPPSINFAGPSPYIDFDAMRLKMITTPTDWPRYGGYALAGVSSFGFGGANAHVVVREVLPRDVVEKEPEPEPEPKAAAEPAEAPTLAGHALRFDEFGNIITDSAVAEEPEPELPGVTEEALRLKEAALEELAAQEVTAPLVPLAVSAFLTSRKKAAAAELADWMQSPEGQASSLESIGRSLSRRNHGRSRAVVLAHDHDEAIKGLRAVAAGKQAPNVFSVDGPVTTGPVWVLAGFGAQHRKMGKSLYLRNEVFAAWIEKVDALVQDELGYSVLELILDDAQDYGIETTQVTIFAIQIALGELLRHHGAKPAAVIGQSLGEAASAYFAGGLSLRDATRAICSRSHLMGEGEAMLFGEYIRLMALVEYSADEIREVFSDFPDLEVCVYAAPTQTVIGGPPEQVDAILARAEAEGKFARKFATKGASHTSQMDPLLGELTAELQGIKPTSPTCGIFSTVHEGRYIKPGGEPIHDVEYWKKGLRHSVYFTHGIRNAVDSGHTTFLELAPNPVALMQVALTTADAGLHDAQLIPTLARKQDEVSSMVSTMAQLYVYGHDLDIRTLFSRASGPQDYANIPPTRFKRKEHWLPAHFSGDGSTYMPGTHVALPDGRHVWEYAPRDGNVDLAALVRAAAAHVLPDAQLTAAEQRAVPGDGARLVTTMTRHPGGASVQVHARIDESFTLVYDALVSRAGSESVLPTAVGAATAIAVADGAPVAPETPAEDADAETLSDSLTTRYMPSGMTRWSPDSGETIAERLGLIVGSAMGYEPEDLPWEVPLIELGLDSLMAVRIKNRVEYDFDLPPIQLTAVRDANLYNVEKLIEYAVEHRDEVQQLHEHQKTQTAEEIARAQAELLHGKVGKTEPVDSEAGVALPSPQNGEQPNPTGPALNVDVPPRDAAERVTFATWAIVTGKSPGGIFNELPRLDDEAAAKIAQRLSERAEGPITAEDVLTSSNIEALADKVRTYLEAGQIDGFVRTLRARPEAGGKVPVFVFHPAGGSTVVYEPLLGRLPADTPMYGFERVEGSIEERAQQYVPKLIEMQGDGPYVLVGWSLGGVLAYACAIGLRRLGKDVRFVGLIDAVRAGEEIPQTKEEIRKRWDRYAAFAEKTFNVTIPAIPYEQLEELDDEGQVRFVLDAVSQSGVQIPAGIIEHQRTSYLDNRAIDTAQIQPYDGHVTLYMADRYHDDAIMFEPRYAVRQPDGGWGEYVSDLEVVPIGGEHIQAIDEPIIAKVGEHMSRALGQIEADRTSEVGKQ
UniProt Q4DA54, 1-478: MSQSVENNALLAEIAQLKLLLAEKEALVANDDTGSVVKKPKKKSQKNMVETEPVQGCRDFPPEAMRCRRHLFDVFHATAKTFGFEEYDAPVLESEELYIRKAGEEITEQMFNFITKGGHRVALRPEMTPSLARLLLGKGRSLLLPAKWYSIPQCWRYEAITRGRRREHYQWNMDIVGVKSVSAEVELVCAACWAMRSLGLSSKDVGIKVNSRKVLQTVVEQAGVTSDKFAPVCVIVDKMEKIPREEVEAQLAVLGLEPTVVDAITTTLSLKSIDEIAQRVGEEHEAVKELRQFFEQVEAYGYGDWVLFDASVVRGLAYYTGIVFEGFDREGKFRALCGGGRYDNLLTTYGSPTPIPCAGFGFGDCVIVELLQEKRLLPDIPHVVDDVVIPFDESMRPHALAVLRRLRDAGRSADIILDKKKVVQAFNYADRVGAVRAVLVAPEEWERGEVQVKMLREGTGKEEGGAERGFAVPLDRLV
UniProt P9WFT3, whole entry: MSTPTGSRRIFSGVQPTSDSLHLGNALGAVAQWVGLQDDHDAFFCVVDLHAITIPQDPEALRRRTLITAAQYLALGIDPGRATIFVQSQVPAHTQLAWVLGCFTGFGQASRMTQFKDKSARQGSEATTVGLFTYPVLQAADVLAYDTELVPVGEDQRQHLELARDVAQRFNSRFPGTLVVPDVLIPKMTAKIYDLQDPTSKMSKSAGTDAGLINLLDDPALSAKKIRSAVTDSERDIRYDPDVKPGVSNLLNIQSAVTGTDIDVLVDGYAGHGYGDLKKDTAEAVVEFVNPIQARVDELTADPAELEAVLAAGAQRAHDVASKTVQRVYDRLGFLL
UniProt P9WPC5, whole entry: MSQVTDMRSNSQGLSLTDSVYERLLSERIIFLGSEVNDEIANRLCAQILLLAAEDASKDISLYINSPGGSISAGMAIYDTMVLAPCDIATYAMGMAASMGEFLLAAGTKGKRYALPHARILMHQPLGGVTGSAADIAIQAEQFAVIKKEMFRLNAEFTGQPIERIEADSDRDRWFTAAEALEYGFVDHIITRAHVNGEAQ
UniProt P9WPC3, whole entry partner: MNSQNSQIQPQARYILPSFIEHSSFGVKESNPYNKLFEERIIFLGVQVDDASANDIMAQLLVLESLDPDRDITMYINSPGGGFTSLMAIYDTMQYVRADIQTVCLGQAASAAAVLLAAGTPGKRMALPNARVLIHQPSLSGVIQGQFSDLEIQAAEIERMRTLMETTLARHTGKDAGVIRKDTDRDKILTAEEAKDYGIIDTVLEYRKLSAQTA

Pks13 thioesterase: 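Polyketide synthase Pks13, Mycobacterium tuberculosis (UniProt I6X8D2). Enzyme assay of the thioesterase domain of polyketide synthase 13; the read-out is not stated. Tested at 30 µM. Higher reads as stronger inhibition (inferred from which compounds were picked for retests). About 67,000 compounds were tested under these conditions; 0.46% (about 300) showed 50% or more at least once.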
TcHisRS: 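Histidine-tRNA ligase, Trypanosoma cruzi CL Brener (UniProt Q4DA54). Enzyme assay of histidyl-tRNA synthetase; the read-out is not stated. Compounds at 30 µM. Direction is inferred from retests: higher values go with stronger inhibition. Of about 69,000 compounds tested this way, about 31 (0.045%) reached 50% or more in at least one test.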
MtTrpRS: 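Tryptophan-tRNA ligase, Mycobacterium tuberculosis (UniProt P9WFT3). Enzyme assay of tryptophanyl-tRNA synthetase; the read-out is not stated. Tested at 10 µM. Direction is not recorded; retested compounds ran higher, which suggests that high means inhibition. Size under these conditions: about 65,000 compounds, about 64 of them at 50% or above in at least one test.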
ClpP1P2: 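ClpP1P2, Mycobacterium tuberculosis (UniProt P9WPC5 and UniProt P9WPC3). Protease assay of ClpP1P2, read by the AMC dye that it sets free. Compounds at 50 µM. Direction is inferred from only a few compounds that gave an IC50; most scored high, so higher reads as stronger inhibition. Most other retested compounds had strongly negative values. About 69,000 compounds were tested under these conditions; 0.015% (about 10) showed 50% or more at least once.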

Values are the deposited “Percent Effect”, in %. How 0% and 100% were set is not recorded. Most values in the screen are low, and negative values occur. Compounds were drawn at random from those tested, without regard to their results. A dash means the value is not listed here; it may have been measured.

| # | compound | Pks13 thioesterase | TcHisRS | MtTrpRS | ClpP1P2 |
|---|---|---|---|---|---|
| 1 | `Cc1noc2nc(C3CCN(Cc4ccccn4)CC3)cc(C(F)F)c12` | -0.8322 | 5.556 | - | 7.534 |
| 2 | `NC(=O)CN1CCCC1c1csc(Nc2cnccn2)n1` (centres unmarked) | 16.73 | 2.198 | - | -7.646 |
| 3 | `O=C(Cc1ccc2c(c1)CCO2)N1CCCC(n2cccn2)C1` (centres unmarked) | -4.88 | 0 | -3.499 | -1.838 |
| 4 | `CCN(Cc1cccc2c1OCO2)CC1CCCO1` (centres unmarked) | -22.81 | 10.84 | 1.452 | -12.99 |
| 5 | `CC(=O)N1CCC(c2n[nH]c3nccnc23)CC1` | 10.43 | 2.198 | - | -7.954 |
| 6 | `Cc1ccccc1CC(=O)N1CCN(C2CCOC2=O)CC1` (centres unmarked) | -3.042 | 6.015 | -4.617 | 7.484 |
| 7 | `c1ccc(CCN2CCOC3(CCc4ccccc43)C2)nc1` (centres unmarked) | -7.902 | 1.093 | -2.683 | 4.012 |
| 8 | `Cc1n[nH]c2c1C(c1ccc(F)cc1)SCC(=O)N2` (centres unmarked) | -18.45 | 10.89 | 2.955 | 8.546 |
| 9 | `Cc1csc(N2CCN(C(=O)CCn3cccn3)CC2)n1` | -30.94 | 2.857 | 5.272 | -10.89 |
| 10 | `COCC1CN(Cc2ccc(C)o2)Cc2ncn(CC3CC3)c21` (centres unmarked) | -17.39 | 1.674 | 1.574 | -16.22 |
| 11 | `CC(=O)NCC(=O)N1CCn2cc(CN(C)Cc3ccco3)nc2C1` | -7.601 | 2.151 | 4.223 | 4.236 |
| 12 | `Cc1ccc(C(=O)N2CCCC3(CCCC(=O)N3C)C2)cc1F` (centres unmarked) | 3.346 | 3.008 | 0.229 | 18.27 |
| 13 | `Cc1cccc(C(=O)Nc2ccc(OC3CCN(C)CC3)cc2)c1` | -21.83 | -0.8368 | -8.699 | -9.561 |
| 14 | `CCC(CO)NC(=O)c1ccc2ccc(N(C)CC3CC3)n2c1` (centres unmarked) | 6.078 | 22.56 | -1.908 | 5.247 |
| 15 | `Cc1ccc(CN2CC(C(=O)NC(C)C)C3(CCOCC3)C2)s1` (centres unmarked) | -32.7 | 0.9901 | 0.4016 | -3.876 |
| 16 | `O[C@H]1[C@H](n2cc(-c3cccnc3)nn2)c2ccccc2C12CCNCC2` | -4.51 | 4.065 | -3.412 | -4.569 |
| 17 | `CN(Cc1cscn1)C(=O)C(c1ccccc1)N1CCSCC1` (centres unmarked) | -20.62 | 6.667 | 1.955 | 0.95 |
| 18 | `COCC(=O)N1CCC2(CC1)COCCN2Cc1ccc(F)cc1` | -5.839 | 9.244 | 6.494 | 5.874 |
| 19 | `Cc1nc(NC(C)C)nc2c1CN(Cc1nccn1C)CC2` | -26.89 | 12.64 | -3.843 | 4.457 |
| 20 | `CSc1ccc(OC(C)C(=O)Nc2c(C)n[nH]c2C)cc1` (centres unmarked) | -33.55 | 8.021 | 2.408 | -0.7455 |
| 21 | `COCc1nc(CNC2CCC3(CCNCC3)CC2)no1` | -9.763 | 7.143 | 0.243 | -6.612 |
| 22 | `O=C(Cc1ccccn1)N1CCc2nc(-c3cnccn3)nc(O)c2C1` | -36.88 | 1.622 | -4.766 | 13.55 |
| 23 | `Cc1ccc(C(=O)N2C[C@@H]3C[C@@H](c4nnc(C5CC5)o4)O[C@@H]3C2)s1` | -5.163 | 1.093 | -5.826 | -8.23 |
| 24 | `CC(C)c1ccc(-n2cc(O)c(C(=O)N3CCC(C(N)=O)CC3)n2)cc1` | 3.293 | 14.94 | -3.667 | -8.665 |
| 25 | `CCc1cc(C)c(C(=O)N2CCCC2CC(=O)c2cnn(C)c2)o1` (centres unmarked) | -17.79 | 4.135 | -5.361 | 6.116 |
| 26 | `CC(C)c1nn(C)c(N(C)C)c1CNCc1cccc2c1OCO2` | 14.48 | 4.624 | -1.237 | -15.55 |
| 27 | `COCCN1CCC(CN(CC2CCCO2)C(=O)CCNC(C)=O)CC1` (centres unmarked) | -8.392 | 2.439 | -9.1 | -11.55 |
| 28 | `Cc1nc(N(C)C)nc2c1COCC21CCN(C(=O)NCC(C)C)C1` (centres unmarked) | -13.27 | 2 | 2.205 | -11.19 |
| 29 | `CN(C)C(=O)c1n[nH]c2c1CN(CC1CCC1)C2` | -2.614 | 1.111 | - | -0.5376 |
| 30 | `CCN1CCc2[nH]cnc2C12CCN(Cc1ccc3nsnc3c1)CC2` | -17.56 | 7.216 | 2.365 | -6.252 |
| 31 | `CN1CCc2ncc(CNc3cc(N(C)C)ncn3)n2CC1` | -30.43 | 4.908 | -0.8721 | -9.555 |
| 32 | `Cc1nc(CN2CCC(N(C)Cc3nnc(C4CC4)n3C)C2)oc1C` (centres unmarked) | 6.203 | 1.163 | 2.941 | 8.666 |
| 33 | `Cc1ncccc1-c1cc2cccnc2n1CCCNC(=O)C(C)(C)C` | 1.643 | 6.513 | -2.607 | -32.43 |
| 34 | `O=C(NCC1=CCCCC1)C(c1cccnc1)N1CCOCC1` (centres unmarked) | -5.259 | 4.255 | -0.1874 | -8.434 |
| 35 | `Cn1c(=O)c2sccc2n(CC(=O)Nc2cccc(Cl)c2)c1=O` | -30.97 | -17.16 | -2.852 | 22.6 |

Data taken from ChEMBL document CHEMBL3988442, “University of Dundee, Small-Polar-MMV Screening Library” (2021).